These are yes or no findings as the source states them, for the method shown. In cells and extracts the contact can be indirect. Some entries that bind do so weakly or less than the wild type.
Biological target: T1, PATL1 (human (endogenous in A549)) (UniProt Q86TB9)
T1 sequence: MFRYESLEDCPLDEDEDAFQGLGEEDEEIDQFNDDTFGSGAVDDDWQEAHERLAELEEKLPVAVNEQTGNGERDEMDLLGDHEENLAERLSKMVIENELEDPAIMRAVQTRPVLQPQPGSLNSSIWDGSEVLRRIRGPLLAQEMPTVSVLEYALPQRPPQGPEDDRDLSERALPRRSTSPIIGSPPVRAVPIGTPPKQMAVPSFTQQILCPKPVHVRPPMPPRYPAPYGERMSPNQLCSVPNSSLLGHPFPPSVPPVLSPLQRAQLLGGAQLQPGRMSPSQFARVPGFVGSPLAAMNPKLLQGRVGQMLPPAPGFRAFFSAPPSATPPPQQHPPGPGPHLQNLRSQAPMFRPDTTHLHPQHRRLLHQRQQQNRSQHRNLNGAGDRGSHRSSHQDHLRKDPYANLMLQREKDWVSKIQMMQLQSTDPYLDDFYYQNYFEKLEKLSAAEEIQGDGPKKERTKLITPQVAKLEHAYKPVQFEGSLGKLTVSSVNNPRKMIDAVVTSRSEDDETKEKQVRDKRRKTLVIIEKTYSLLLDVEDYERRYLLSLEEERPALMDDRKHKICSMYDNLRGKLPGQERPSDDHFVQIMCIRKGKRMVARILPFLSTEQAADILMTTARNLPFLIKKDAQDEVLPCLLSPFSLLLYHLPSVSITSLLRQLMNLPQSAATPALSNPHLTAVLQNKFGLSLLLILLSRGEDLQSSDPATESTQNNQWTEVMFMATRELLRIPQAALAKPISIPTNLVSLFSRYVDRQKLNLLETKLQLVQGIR
Test: co-IP; lysates of A549 cells immunoprecipitated with an antibody against PATL1, western blot analysis of the precipitate

By UniProt entry, the sequences of proteins in these tests, tags left out.
UniProt O00425: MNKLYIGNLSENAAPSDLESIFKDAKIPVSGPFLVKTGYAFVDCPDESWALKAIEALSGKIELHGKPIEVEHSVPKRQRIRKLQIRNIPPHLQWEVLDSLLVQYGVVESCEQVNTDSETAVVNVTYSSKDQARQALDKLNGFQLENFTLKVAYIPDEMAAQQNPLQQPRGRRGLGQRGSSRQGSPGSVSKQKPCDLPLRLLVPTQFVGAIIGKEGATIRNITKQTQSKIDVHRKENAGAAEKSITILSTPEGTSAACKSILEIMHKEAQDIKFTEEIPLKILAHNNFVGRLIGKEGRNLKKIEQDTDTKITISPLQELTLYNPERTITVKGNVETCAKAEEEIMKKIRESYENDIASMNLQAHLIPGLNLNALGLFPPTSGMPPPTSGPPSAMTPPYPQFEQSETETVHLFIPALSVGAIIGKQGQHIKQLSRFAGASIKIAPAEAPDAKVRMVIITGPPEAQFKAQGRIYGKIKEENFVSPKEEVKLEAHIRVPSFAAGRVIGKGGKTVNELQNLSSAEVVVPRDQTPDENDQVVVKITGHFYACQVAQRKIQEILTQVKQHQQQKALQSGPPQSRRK
UniProt Q8ND56: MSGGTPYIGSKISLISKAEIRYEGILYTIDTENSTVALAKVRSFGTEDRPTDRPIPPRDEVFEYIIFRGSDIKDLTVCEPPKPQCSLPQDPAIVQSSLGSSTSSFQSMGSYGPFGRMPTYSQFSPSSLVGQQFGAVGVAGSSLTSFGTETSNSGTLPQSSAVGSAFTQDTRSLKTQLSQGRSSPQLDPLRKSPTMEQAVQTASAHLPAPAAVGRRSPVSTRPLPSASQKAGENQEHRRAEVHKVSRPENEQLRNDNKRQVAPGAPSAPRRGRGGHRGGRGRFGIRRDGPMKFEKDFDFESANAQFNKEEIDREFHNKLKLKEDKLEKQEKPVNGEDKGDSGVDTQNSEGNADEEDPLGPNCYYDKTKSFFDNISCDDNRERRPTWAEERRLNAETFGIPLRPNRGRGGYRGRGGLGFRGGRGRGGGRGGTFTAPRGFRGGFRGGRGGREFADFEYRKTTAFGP

| binding | Substance |
| --- | --- |
| binds | Insulin-like growth factor 2 mRNA-binding protein 3 (IMP3) (from UniProt O00425 1-579) |
| binds | LSM14A (from UniProt Q8ND56 1-463) |

Reference: publication PMC12230637
